# These are yes or no findings as the source states them, for the method shown. In cells and extracts the contact can be indirect. Some binding calls cover weakened binding; strength is not graded here.
# The chains behind the UniProt entries cited, without tags or fusion partners. Residues count along the entry.
# UniProt Q9QUK6, residues 26-835: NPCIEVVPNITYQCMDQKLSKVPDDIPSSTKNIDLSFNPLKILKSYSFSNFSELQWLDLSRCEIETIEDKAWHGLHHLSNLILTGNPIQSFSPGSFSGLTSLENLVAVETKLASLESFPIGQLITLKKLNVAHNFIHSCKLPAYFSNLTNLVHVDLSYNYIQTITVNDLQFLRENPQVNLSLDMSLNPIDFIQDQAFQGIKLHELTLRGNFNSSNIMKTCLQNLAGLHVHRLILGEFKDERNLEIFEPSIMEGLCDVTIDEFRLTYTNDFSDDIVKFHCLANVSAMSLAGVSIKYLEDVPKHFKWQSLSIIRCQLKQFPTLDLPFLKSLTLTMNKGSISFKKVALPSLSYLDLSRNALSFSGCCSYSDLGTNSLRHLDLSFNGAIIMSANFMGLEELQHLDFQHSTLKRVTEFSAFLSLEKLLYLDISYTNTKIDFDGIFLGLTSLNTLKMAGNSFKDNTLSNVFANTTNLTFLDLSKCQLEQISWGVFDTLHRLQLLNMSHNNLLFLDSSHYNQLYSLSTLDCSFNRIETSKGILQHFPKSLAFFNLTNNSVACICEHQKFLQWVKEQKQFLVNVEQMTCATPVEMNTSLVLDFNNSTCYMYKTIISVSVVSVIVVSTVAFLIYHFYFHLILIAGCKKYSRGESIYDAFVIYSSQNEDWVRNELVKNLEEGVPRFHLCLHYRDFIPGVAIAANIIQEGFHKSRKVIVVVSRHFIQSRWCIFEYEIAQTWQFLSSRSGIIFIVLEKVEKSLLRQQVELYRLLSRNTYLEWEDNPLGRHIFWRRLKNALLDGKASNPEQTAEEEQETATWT
# Target: T1, CD14 (mouse (endogenous in RAW264.7)) (UniProt P10810)
# T1 sequence: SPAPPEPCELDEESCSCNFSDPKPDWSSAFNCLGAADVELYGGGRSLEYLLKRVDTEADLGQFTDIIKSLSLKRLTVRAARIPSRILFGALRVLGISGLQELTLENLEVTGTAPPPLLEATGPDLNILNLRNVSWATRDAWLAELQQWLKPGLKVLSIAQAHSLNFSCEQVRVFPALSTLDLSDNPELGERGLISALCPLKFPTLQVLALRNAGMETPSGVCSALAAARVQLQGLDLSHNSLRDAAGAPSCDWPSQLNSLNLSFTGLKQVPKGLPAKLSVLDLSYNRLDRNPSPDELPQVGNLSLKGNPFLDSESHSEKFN
# Assay: co-IP; RAW264.7 lysates (50 mM Hepes, 100 mM NaCl, 2 mM EDTA, 10% glycerol, 1% Igepal CA-630), IP with anti-mouse CD14 antibody at 4°C, Protein A/G Plus-Agarose, Western blot for TLR4; cells unstimulated or stimulated with LPS (1 µg/mL) or viable P. aeruginosa (MOI 1) for 24 h, with or without PUFA (LNA, EPA, DHA, LA, AA; 15 µM, 72 h)
substance,measurement,value
Toll-like receptor 4 (from UniProt Q9QUK6 26-835),binding,binds

# Source: PMC4748739
